Results of single-concentration screens

Protein sequences, listed by entry. Tags and fused reporters are not part of them. Residues count along the entry.
UniProt Q4DA54, 1-478: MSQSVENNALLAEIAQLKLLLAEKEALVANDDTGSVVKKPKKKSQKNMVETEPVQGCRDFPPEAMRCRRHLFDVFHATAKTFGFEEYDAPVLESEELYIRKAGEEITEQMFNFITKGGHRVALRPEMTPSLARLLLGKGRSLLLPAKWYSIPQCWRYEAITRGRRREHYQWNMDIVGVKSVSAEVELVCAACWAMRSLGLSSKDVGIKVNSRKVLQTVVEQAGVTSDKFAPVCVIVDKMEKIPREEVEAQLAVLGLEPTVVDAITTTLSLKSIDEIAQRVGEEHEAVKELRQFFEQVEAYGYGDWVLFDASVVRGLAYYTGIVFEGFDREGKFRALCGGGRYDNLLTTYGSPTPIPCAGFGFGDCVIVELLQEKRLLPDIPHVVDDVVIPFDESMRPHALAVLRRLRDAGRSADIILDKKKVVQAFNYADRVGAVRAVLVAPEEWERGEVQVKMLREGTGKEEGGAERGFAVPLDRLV
UniProt P9WPC5, whole entry: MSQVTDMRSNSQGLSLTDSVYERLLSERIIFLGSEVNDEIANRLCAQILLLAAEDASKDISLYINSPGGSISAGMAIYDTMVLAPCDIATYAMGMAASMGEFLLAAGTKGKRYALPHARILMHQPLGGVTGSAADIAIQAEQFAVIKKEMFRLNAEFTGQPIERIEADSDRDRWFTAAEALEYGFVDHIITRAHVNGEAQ
UniProt P9WPC3, whole entry partner: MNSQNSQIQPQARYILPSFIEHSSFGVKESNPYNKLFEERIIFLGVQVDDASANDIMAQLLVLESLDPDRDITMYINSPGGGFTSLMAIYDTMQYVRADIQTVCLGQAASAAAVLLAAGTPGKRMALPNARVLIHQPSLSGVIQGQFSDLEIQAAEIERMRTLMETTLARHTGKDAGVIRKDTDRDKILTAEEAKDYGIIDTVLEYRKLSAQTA
UniProt Q8IDJ8, 1-583: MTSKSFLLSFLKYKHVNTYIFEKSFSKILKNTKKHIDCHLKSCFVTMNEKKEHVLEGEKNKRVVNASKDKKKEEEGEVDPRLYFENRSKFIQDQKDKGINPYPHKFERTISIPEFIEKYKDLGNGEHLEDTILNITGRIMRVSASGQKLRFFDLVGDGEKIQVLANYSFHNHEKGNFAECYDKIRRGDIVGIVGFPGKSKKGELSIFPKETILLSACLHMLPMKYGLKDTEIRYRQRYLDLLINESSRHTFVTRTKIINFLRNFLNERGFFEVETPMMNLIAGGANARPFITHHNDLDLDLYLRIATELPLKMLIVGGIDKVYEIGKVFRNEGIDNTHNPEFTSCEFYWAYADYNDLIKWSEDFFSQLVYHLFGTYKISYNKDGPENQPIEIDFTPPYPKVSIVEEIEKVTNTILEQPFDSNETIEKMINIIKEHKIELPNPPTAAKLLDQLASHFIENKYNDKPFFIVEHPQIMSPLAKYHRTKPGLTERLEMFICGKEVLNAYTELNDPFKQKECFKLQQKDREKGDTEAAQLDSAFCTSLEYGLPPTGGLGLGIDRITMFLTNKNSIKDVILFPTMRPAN
UniProt A4I591, 1-473: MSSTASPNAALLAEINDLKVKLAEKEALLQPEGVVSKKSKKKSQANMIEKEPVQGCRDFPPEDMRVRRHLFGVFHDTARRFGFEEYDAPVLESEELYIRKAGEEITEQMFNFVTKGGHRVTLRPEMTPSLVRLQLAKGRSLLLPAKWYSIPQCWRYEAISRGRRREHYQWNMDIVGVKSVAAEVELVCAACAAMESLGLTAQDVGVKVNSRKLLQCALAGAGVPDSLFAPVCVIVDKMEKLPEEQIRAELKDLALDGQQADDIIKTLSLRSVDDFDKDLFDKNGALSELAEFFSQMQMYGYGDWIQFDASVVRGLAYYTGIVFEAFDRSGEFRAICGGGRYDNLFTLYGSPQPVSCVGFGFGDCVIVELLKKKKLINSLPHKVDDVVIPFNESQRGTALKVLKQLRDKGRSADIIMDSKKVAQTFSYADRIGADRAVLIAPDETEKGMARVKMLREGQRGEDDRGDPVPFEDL

Measurements from “University of Dundee, Small-Polar-MMV Screening Library” (2021), ChEMBL document CHEMBL3988442.

TcHisRS: 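Enzyme assay of histidyl-tRNA synthetase; the read-out is not stated. Target: Histidine-tRNA ligase, Trypanosoma cruzi CL Brener (UniProt Q4DA54). Concentration: 30 µM. Direction is inferred from retests: higher values go with stronger inhibition. Of about 69,000 compounds tested this way, about 31 (0.045%) reached 50% or more in at least one test.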
ClpP1P2: 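Protease assay of ClpP1P2, read by the AMC dye that it sets free. Target: ClpP1P2, Mycobacterium tuberculosis (UniProt P9WPC5 and UniProt P9WPC3). Compounds at 50 µM. Higher reads as stronger inhibition, judged from the few compounds that gave an IC50. Most other retested compounds had strongly negative values. About 69,000 compounds were tested under these conditions; 0.015% (about 10) showed 50% or more at least once.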
PfKRS1: 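Lysine-tRNA ligase, Plasmodium falciparum 3D7 (UniProt Q8IDJ8). Enzyme assay of the cytosolic lysyl-tRNA synthetase in 384-well plates, read by luminescence. Concentration: 30 µM. Higher reads as stronger inhibition, judged from the few compounds that gave an IC50. Of about 69,000 compounds tested this way, about 49 (0.071%) reached 50% or more in at least one test.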
LiHisRS: 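Histidine-tRNA ligase, Leishmania infantum (UniProt A4I591). Enzyme assay of histidyl-tRNA synthetase; the read-out is not stated. Compounds at 30 µM. Higher reads as stronger inhibition (inferred: compounds with an IC50 in retests scored well above the rest). The assay is labelled LdHisRS but filed under L. infantum. About 69,000 compounds were tested under these conditions; 0.6% (about 410) showed 50% or more at least once.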

Each number is a percent effect as filed.
The record does not define 0% and 100%; most values in the screen are far below 50% and negative numbers occur (in some assays of this library far below -100).
Compounds were drawn at random from those tested, without regard to their results.

| # | structure | TcHisRS | ClpP1P2 | PfKRS1 | LiHisRS |
|---|---|---|---|---|---|
| 1 | `COc1cccc(O)c1CN1CCCC(Nc2cccc(F)c2)C1` (stereo unspecified) | 0 | -3.546 | -0.03337 | 6.557 |
| 2 | `COc1ncccc1CN1CCc2[nH]nc(C(=O)N(C)C)c2C1` | -2.913 | -4.439 | 0.9427 | 5.769 |
| 3 | `COc1cccc(CN(C)Cc2nc(C(C)C)no2)c1` | 1.754 | -6.286 | -4.922 | -10.53 |
| 4 | `CC(=O)C1(c2ccccc2)CCN(C(=O)CC2CNCCO2)CC1` (stereo unspecified) | 5.952 | -0.4744 | 6.712 | 22.22 |
| 5 | `Cc1cnn(CCC(=O)Nc2cccnc2N2CCC(CO)CC2)c1` | 1.571 | 1.327 | 2.93 | 10.34 |
| 6 | `O=C(Nc1ccc(-n2cccn2)cc1)N1CCOCC(O)C1` (stereo unspecified) | 9.827 | -3.648 | 5.078 | 12.77 |
| 7 | `CN(Cc1nc(CC2CC2)no1)CC1COc2ccccc2O1` (stereo unspecified) | 5.464 | -12.78 | 3.078 | 2.74 |
| 8 | `Cn1nc(C2CCCN(Cc3ccc(F)cc3)C2)c2nccnc21` (stereo unspecified) | -6.383 | -5.223 | 3.49 | 17.71 |
| 9 | `CCS(=O)(=O)c1ccc(N2CCC(NC(=O)NC(C)CO)CC2)cc1` (stereo unspecified) | 5.102 | -12.08 | -0.1711 | 3.306 |
| 10 | `CN(C)c1cc(C(=O)N2CCCN(c3cccnn3)CC2)ccn1` | 5.572 | -3.315 | -0.7295 | 13.89 |
| 11 | `N[C@H]1CN(C(=O)Cc2cc(F)cc(Cl)c2)C[C@@H]1C1CC1` | 3.012 | -8.248 | -2.741 | 10.99 |
| 12 | `CNc1nc2c(s1)C(=O)CN(C(=O)NCc1ccccc1)C2` | 2.642 | -15.51 | 3.697 | 6.757 |
| 13 | `CC(O)CN1CCC(=O)N(Cc2ccccc2)Cc2ccccc21` (stereo unspecified) | 4.494 | 1.34 | 2.769 | -4.082 |
| 14 | `CCOCCN1CCN(CC(=O)NC2(C#N)CCCC2)CC1C` (stereo unspecified) | 4.902 | 14.53 | -4.613 | -1.667 |
| 15 | `Cc1ccc(Oc2ncccc2C(=O)N(C)CC2OCCO2)c(C)c1` | 9.091 | 0.5433 | 4.158 | 11.88 |
| 16 | `Nc1nc(N2CCCCC2)ncc1C(=O)NCc1ccc(F)c(Cl)c1` | 14.85 | 20.24 | 2.649 | 21.74 |
| 17 | `COC1CCN(C(=O)c2nn(-c3ccc(C(C)C)cc3)cc2O)CC1` | -4.598 | 1.618 | -0.05772 | -28.21 |
| 18 | `CCS(=O)(=O)N1C[C@H]2CN(c3cnn(C)c3)C(=O)[C@H]2C1` | 5.063 | -6.313 | 3.456 | 6.897 |
| 19 | `CCN1CCN(C(=O)COCc2nc(-c3ccncc3)no2)CC1` | -5.263 | -4.992 | -0.2763 | 12.39 |
| 20 | `O=C(c1ccnc(CC2COc3ccccc3C2)c1)N1CCCC1` (stereo unspecified) | 6.468 | 6.888 | -0.5658 | -6.024 |
| 21 | `Cc1cn2c(CN(C)C(=O)c3cnc(N)c(Cl)c3)c(C)nc2s1` | 7.027 | -1.718 | -2.085 | -2.74 |
| 22 | `CC(C)N1CCC(Cc2cc(-c3ccccc3C(=O)O)ncn2)CC1` | 8.108 | 14.37 | 0.2756 | 38.89 |
| 23 | `CC(=O)N1CCO[C@@H]2CN(S(=O)(=O)C3CC3)C[C@@H]2C1` | 3.175 | -7.492 | 3.728 | 10 |
| 24 | `COCCN1CCC(CN(C)c2nc3c(s2)c(C)nn3C)CC1` | -4.255 | -0.6708 | -2.033 | -1.493 |
| 25 | `COc1cccc(CCC2CCCN(C(=O)c3ccc(OC)o3)C2)c1` (stereo unspecified) | 0.9804 | -20.19 | 1.439 | 14.4 |
| 26 | `COc1cccc(CN(C(=O)Nc2nncs2)C2CCC(O)CC2)c1` (stereo unspecified) | 3.896 | 7.819 | 3.025 | 25.71 |
| 27 | `CN(C)C(=O)CN1CCC2(CCCN(Cc3ccoc3)C2)C1=O` (stereo unspecified) | 3.061 | -3.448 | -0.3839 | 9 |
| 28 | `O=C1NCCN1C1CCN(CC(O)c2ccccc2F)CC1` (stereo unspecified) | 6.186 | 4.4 | 3.087 | 14.94 |
| 29 | `CN1CCN(C[C@H]2OC[C@@H]3CCN(C(=O)c4cnccn4)C[C@@H]32)CC1` | -2.299 | 5.775 | -0.06845 | 28.95 |
| 30 | `CCN(C(=O)CS(=O)(=O)Cc1cc(Cl)c2c(c1)OCCCO2)C1CC1` | 3.008 | 4.473 | 12.67 | 10.11 |
| 31 | `Cc1noc(COCC(=O)Nc2ccc(Br)c(C)n2)n1` | 0 | -3.828 | 3.924 | 18.42 |
| 32 | `Cc1occc(=O)c1OCc1noc(C(=O)NCC(C)C)n1` | 2 | -6.922 | 3.679 | 10.87 |
| 33 | `COc1ccc(OC)c(NC(=O)c2c(C)cn(C)c2CC(=O)O)c1` | 6 | -4.934 | 1.179 | 2.74 |
| 34 | `O=C(CSc1ccc(F)cc1F)NS(=O)(=O)c1ccc2c(c1)OCCO2` | 4.734 | -13.26 | -0.406 | 7.143 |
| 35 | `CC(C)S(=O)(=O)CC(=O)N1CCCC(n2ccnc2)C1` (stereo unspecified) | 1.587 | 21.21 | 0.2867 | 19.18 |
| 36 | `Cc1ccc(S(=O)(=O)CCC(=O)NCc2nnc3n2CCC3)cc1` | 1.657 | 6.023 | 3.22 | 4.167 |
| 37 | `CC(C)CN1CCN(S(=O)(=O)c2cn(C)cn2)Cc2cccnc21` | 3.681 | -1.738 | 2.793 | 6.838 |
| 38 | `COc1ccc(CCN2CCCC(n3cncn3)C2)cc1` (stereo unspecified) | 6.667 | -5.721 | 5.185 | 13.33 |
| 39 | `CN(C)S(=O)(=O)c1ccc(-c2nc(C#N)c(NC3CCCCC3)o2)o1` | 2 | -249.4 | 0.1986 | 15.22 |
| 40 | `O=C1[C@@H]2CCN(CC3CC3)C[C@@H]2OCCN1c1ccsc1` | 3.448 | -2.307 | 1.543 | 2 |
| 41 | `Cc1ccn(-c2ccccc2NCc2cccnc2)n1` | 4.926 | -12.73 | -1.822 | -4.11 |
| 42 | `O=C1CC2(CCCCN2C(=O)c2cccs2)CN1CC1CC1` (stereo unspecified) | -1.442 | -2.397 | 5.701 | 19.27 |
| 43 | `COc1ccccc1CN(Cc1cccnc1)Cc1nccs1` | 2.618 | 13.25 | 0.4027 | 11.83 |
| 44 | `Cc1cc(C(=O)N2CC[C@@H]3CN(CCC(C)C)S(=O)(=O)[C@@H]3CC2)no1` | 5.825 | -13.78 | 2.368 | 7.692 |
| 45 | `CC(C)(C)C(=O)CN1Cc2ccccc2NCCC1=O` | 2.312 | 14.08 | 2.233 | 14.43 |
| 46 | `CC(C)N(C)C(=O)c1ccc(Cl)c(NC(=O)C2CCC2)c1` | -1.538 | -2.203 | 2.759 | 14.29 |
| 47 | `CC(C)c1ccc(CCC(=O)N(C)C2CCN(C)C2=O)cc1` (stereo unspecified) | 1.093 | -6.277 | 2.621 | 0 |
| 48 | `Cc1ccsc1CN(CCCC(F)(F)F)Cc1ccccn1` | 4.911 | -16.41 | 1.242 | -1.235 |
| 49 | `Clc1cc(Cl)cc(CN2CCC(NCc3cc[nH]n3)CC2)c1` | 4.762 | -3.297 | -2.397 | -2.74 |
| 50 | `CC1CN(C(=O)c2nccnc2N)c2ccc(F)cc2O1` (stereo unspecified) | 8.861 | 4.274 | 1.021 | 8.333 |
| 51 | `Cn1cnnc1CC1CCN(Cc2nn(C)c3cccc(Cl)c23)CC1` | 3.614 | 16.57 | -11.13 | -6 |
| 52 | `CN1CCOC(C)(C(=O)N2CCN(C3CCCC3)CC2)C1` (stereo unspecified) | 1.521 | -15.15 | 0.6533 | 3.448 |
| 53 | `CCNc1ncc2c(n1)CN(c1ccc(OC(F)(F)F)cc1)C2=O` | 2.609 | 1.011 | 4.656 | 15.52 |
| 54 | `COc1cc(C)nc(N2CCN(C(=O)CCc3nccs3)CC2)n1` | 2.5 | -5.182 | -5.088 | 3.846 |
| 55 | `O=C1CC(c2ccsc2)c2sc(C(=O)O)c(-c3ccc(F)cc3)c2N1` (stereo unspecified) | 4.848 | -3.861 | -0.0947 | 10.39 |
| 56 | `CS(=O)(=O)c1ccccc1C(=O)NCCCN1CCc2ccccc2C1` | -4.151 | -1.293 | -0.323 | 28.38 |
| 57 | `Cc1cc(NC(=O)C(C)Cn2cc(Br)cn2)no1` (stereo unspecified) | 4.386 | -0.482 | 3.592 | 5.31 |
| 58 | `C[C@H](c1ccc(Cl)cc1)n1c(C2CC2)n[nH]c1=O` | -5.747 | -17.73 | 0.8574 | -4.839 |
| 59 | `COc1cc(N2CC[C@@H]3O[C@H](C(=O)N(C)C)C[C@@H]32)ncn1` | 0.9524 | -7.944 | 0.1887 | 6.944 |
| 60 | `Cc1cc(C)n(CC(C)NCc2nc(-c3cccnc3)no2)n1` (stereo unspecified) | -2.232 | -18.23 | 4.796 | 20.99 |
| 61 | `O=C(COC[C@]12COC[C@H]1CN(C1CCC1)C2)N1CCCC1` | 9.524 | 10.9 | -0.01607 | 17.27 |
| 62 | `Cc1ncc(S(C)(=O)=O)c(N2CCCN(Cc3ccccn3)CC2)n1` | 4.865 | -8.538 | 7.132 | 11.97 |
| 63 | `CCN1CCN(C(=O)NCc2ccccc2Cn2cncn2)CC1` | 3.077 | 4.291 | -0.7227 | 16.33 |
| 64 | `CC(C)n1ccnc1CN1CCCN(C(=O)CC2CCCO2)CC1` (stereo unspecified) | 7.887 | 16.58 | -2.563 | 14.78 |
| 65 | `CCn1c(C)nnc1SCCNc1cc(COC)ncn1` | 6.154 | 4.725 | 2.476 | 12.24 |